Format: physicochemical
Conditions: FeCl2, 1H-NMR
Excerpt: FIG. 1. Salinomycin and AM5 sequester iron in lysosomes and trigger ferritin degradation. a, Chemical strategy to visualize small molecules in cells. b, Fluorescence microscopy images of U2OS cells showing the subcellular localization of labeled Sal derivatives AM4, AM5, and AM9. Lysotracker Deep Red stains the lysosomes and 4′,6-diamidino-2-phenylindole (DAPI) stains nuclear DNA. Scale bar, 10 μm. Zoom corresponds to ×6. c, Live cell fluorescence microscopy images showing the subcellular localization of iron(II) using the fluorogenic reduction of RhoNox-1 (green) in HMLER CD24^low cells treated with Sal or AM5 or AM9 (0.5 μM) for 48 h. Lysotracker deep red stains the lysosomes (red) and DAPI stains nuclear DNA (blue). Scale bar, 10 μm. d, Fixed cell fluorescence microscopy images showing the subcellular localization of iron(II) using the fluorogenic reduction of RhoNox-1 (green) in HMLER CD24^low cells treated with Sal or AM5 or AM9 (0.5 μM) for 48 h. e, Quantification of lysotracker-positive vesicles colocalizing with RhoNox-1 in fixed cells was carried out by means of visual inspection. At least 75 cells were counted per condition. Data represent three independent biological replicates (n=number of lysotracker vesicles). […] Spectra were recorded in CD3CN. […] For k and I, Samples prepared in CD3OD, spectra recorded at 298 K, 5 min following sample preparation (600 MHz). […]

With `CC[C@@H](C(=O)[C@@H](C)[C@@H](O)[C@H](C)[C@@H]1O[C@@H]([C@@H](CC)C(=O)O)CC[C@@H]1C)[C@H]1O[C@]2(C=C[C@@H](O)[C@]3(CC[C@@](C)([C@H]4CC[C@](O)(CC)[C@H](C)O4)O3)O2)[C@H](C)C[C@@H]1C` [Sal, salinomycin, reference compound] the “interaction with iron(II)” value was “interacted with iron(II)”.
